From paper PMC10589970
These are yes or no findings as the source states them, for the method shown. In cells and extracts the contact can be indirect. Some results given as binding are weak or reduced against the parent protein; the word gives no strength. Values belong to the substance of their own block, whether it stands above or below them.

The chains behind the UniProt entries cited, without tags or fusion partners.
UniProt Q13546: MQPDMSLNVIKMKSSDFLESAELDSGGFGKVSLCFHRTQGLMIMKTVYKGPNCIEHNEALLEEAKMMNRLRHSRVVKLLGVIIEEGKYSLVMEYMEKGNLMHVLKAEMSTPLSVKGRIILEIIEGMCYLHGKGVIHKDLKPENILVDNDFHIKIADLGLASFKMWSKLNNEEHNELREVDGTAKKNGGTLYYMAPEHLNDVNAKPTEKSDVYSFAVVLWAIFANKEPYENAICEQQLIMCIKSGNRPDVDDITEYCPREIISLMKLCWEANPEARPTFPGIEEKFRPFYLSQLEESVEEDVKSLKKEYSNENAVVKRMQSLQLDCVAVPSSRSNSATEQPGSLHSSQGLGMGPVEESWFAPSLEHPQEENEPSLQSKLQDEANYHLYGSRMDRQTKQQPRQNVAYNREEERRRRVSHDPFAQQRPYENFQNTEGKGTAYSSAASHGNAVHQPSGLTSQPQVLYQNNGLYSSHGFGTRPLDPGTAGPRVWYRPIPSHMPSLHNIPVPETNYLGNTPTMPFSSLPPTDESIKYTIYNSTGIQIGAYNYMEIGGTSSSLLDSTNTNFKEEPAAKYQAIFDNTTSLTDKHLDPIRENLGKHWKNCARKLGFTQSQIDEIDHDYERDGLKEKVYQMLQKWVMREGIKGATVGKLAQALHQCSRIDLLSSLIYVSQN
UniProt Q13263: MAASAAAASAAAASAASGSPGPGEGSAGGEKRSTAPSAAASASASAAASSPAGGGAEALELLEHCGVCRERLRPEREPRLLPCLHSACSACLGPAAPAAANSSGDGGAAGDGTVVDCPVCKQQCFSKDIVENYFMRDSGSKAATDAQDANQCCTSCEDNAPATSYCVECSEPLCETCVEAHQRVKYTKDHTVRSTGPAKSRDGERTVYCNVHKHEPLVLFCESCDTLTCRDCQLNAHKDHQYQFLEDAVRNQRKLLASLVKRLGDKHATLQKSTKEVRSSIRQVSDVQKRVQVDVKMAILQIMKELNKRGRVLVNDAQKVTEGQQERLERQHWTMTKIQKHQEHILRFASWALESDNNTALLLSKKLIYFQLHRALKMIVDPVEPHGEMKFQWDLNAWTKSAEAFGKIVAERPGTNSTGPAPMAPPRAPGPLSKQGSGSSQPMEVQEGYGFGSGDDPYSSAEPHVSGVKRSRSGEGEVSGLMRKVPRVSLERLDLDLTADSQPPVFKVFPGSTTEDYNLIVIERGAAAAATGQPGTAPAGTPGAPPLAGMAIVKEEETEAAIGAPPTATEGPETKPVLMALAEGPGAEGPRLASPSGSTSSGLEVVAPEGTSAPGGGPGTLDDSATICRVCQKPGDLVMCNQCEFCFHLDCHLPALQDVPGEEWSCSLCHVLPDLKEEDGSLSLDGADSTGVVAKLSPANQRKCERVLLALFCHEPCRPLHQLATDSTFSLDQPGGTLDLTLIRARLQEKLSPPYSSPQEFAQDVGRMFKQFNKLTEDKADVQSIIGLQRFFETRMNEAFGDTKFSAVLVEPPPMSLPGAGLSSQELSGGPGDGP

Columns and labels:
[1] = biological target: Flag-RIPK1 (human) (UniProt Q13546); assay: co-IP; Flag-RIPK1 and HA-TRIM28 co-transfected into HEK293T cells; immunoprecipitation with anti-Flag magnetic beads and blot for HA-TRIM28, and vice versa; cells lysed in RIPA buffer, 4 °C, washed three times with lysis buffer
[2] = biological target: HA-TRIM28 (human) (UniProt Q13263); assay: as above
[3] = biological target: endogenous RIPK1 (H1299 cells) (human (endogenous in H1299)) (UniProt Q13546); assay: co-IP; endogenous proteins in lysates of CMT-167 and H1299 cells; primary antibody overnight at 4 °C, Protein G beads, immunoblotting; which protein was precipitated is not told

binding [1]: binds
Substance: HA-TRIM28 (from UniProt Q13263 1-835)

binding [2]: binds
Substance: Flag-RIPK1 (from UniProt Q13546 1-671)

binding [3]: binds
Substance: endogenous TRIM28 (H1299 cells) (from UniProt Q13263 1-835)
